# Results are given in words; binding and its absence hold for the method and conditions named. In cells and extracts the contact can be indirect. Some binding calls cover weakened binding; strength is not graded here.
# Sequences of proteins named here, by UniProt entry; tags and fusion partners are left off.
# UniProt Q99558: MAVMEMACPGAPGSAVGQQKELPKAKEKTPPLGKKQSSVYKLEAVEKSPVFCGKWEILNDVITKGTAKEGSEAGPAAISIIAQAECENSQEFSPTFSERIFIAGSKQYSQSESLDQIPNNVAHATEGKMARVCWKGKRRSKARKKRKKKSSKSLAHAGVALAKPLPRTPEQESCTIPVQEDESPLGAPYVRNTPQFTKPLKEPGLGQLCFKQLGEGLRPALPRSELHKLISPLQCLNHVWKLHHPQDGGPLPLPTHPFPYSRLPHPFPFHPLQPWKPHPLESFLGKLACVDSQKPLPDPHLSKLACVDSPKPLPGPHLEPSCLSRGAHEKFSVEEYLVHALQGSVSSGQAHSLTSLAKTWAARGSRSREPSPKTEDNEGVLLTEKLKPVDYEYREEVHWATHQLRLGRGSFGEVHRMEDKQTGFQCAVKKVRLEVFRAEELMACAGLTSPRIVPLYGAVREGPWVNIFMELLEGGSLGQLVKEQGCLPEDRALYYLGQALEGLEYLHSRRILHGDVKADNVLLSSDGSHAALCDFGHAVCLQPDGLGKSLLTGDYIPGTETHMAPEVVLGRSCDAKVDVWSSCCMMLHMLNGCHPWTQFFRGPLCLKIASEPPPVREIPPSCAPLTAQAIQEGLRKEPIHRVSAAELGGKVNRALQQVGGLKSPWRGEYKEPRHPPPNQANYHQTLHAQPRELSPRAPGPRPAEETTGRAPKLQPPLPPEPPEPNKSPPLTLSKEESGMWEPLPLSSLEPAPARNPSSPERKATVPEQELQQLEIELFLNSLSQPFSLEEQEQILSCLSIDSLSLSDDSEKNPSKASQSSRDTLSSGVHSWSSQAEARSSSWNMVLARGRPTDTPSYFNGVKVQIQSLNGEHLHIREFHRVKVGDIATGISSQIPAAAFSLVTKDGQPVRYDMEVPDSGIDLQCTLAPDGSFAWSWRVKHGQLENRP
# B1: IKK-α(307-745) (enzyme)
# chain: ILNLKIVHILNMTSAKIISFLLPPDESLHSLQSRIERETGINTGSQELLSETGISLDPRKPASQCVLDGVRGCDSYMVYLFDKSKTVYEGPFASRSLSDCVNYIVQDSKIQLPIIQLRKVWAEAVHYVSGLKEDYSRLFQGQRAAMLSLLRYNANLTKMKNTLISASQQLKAKLEFFHKSIQLDLERYSEQMTYGISSEKMLKAWKEMEEKAIHYAEVGVIGYLEDQIMSLHAEIMELQKSPYGRRQGDLMESLEQRAIDLYKQLKHRPSDHSYSDSTEMVKIIVHTVQSQDRVLKELFGHLSKLLGCKQKIIDLLPKVEVALSNIKEADNTVMFMQGKRQKEIWHLLKIACTQSSARSLVGSSLEGAVTPQTSAWLPPTSAEHDHSLSCVVTPQDGETSAQMIEENLNCLGHLSTIIHEANEEQGNSMMNLDWSWLTE
# What was measured:
# Myc epitope-tagged NIK [1] = target: Myc epitope-tagged NIK (UniProt Q99558); assay: coimmunoprecipitation from 293 cell lysates
# Myc epitope-tagged NIK [2] = target: Myc epitope-tagged NIK (UniProt Q99558); assay: restates the coimmunoprecipitation result
binder,measurement,setting,value
B1,binding,Myc epitope-tagged NIK [1],binds
same,binding,Myc epitope-tagged NIK [2],binds
